# From PubChem BioAssay AID2685 (National Center for Advancing Translational Sciences (NCATS), 2010)
# Some of the results follow. Further columns of the screen follow, without active or inactive calls. The list favours compounds with an active or inconclusive main result. The note in brackets gives the kind of curve behind each potency; many fits are weak.
# Assay: qHTS Assay for Lipid Storage Modulators in Drosophila S3 Cells;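 as to cell number change: cells counted by Cell Tracker Red CMTPX staining in the red channel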
# Conditions: BODIPY lipid droplet fluorescence, 18-24 h; for cell number change: measured here: cell count max response, cells fed with added oleic acid
# Procedure, shortened: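 Drosophila S3 cells got compounds at several concentrations plus oleic acid (400 uM solution). Laser-scanning cytometry with 488 nm excitation read lipid droplets at 500-530 nm and cells at 575-640 nm. Percent activity was relative to 20 uM Triacsin C.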
# [1] = measured here: cell number channel AC50, cells fed with added oleic acid
# [2] = measured here: lipid fluorescence (Fed channel) AC50, cells fed with added oleic acid
Compound,cell number change [%],AC50 [1],AC50 [2]
COc1ccc(CCC(=O)NNC(=O)Nc2ccc(OC)c(OC)c2)cc1,8.91,,
Cc1nn(-c2ccc(F)cc2)c2sc(C(=O)OCC(=O)N3CCC(C)CC3)cc12,,"0.517 µM [rising, single point]",
CC1(NC(=O)Cn2cc(C(F)(F)F)ccc2=O)CCS(=O)(=O)C1 (stereo not given),13,,"6.51 µM [falling, single point]"
Cc1ccc(Nc2ccc(N)cc2S(=O)(=O)O)cc1,-43.6,"29.1 µM [falling, single point]","29.1 µM [falling, single point]"
O=C(CNS(=O)(=O)c1ccc(Br)cc1)Nc1ccc2c(c1)OCCO2,1.66,,"6.51 µM [falling, single point]"
Cn1cccc1-c1cc(C(=O)N/N=C/C=C/c2ccccc2)[nH]n1,10.9,"0.058 µM [rising, full curve, poor fit]",
CCOc1ccc(CCNC(=O)COC(=O)CNS(=O)(=O)c2ccc(NC(C)=O)cc2)cc1OCC,-49.7,"0.164 µM [falling, full curve, poor fit]","0.82 µM [falling, full curve]"
CCCC(=O)Nc1nc2nc(-c3ccccc3)cc(=O)n2[nH]1,6.43,,"29.1 µM [falling, single point]"
CCOC(=O)/C(C#N)=C1/C=CN(c2ccccc2)C=N1,-0.78,,
CCOC(=O)N1CCC(NC(=O)CN2C(=O)CCSc3ccccc32)CC1,19.6,,"6.51 µM [falling, single point]"
Cn1cccc1C(=O)OCC(=O)c1cc2ccccc2o1,-0.753,,
Cc1cc(Br)c(NC(=O)C(C)Sc2nnnn2C)c(Br)c1 (stereo not given),-25.9,,"5.8 µM [falling, full curve, poor fit]"
CCCN(Cc1nnc(-c2cccs2)o1)C(=O)c1cc(S(=O)(=O)N2CCOCC2)ccc1C,-3.08,,"0.92 µM [falling, full curve]"
Nc1nc(SCC(=O)Nc2ccc(Oc3ccccc3)cc2)n[nH]1,37.7,"0.0103 µM [rising, full curve, poor fit]",
CCCOc1ccc(C2CC(=O)Nc3cc(OC)c(OC)cc32)cc1 (stereo not given),-33.6,"20.6 µM [falling, single point]",
Cn1cccc1Cc1nnc(SCC(=O)NC2CCCC2)n1-c1ccc(F)cc1,0.902,,
COc1ccc(Cl)cc1NC(=O)C(C)N(C)Cc1ccc(C(F)(F)F)cc1 (stereo not given),-19.8,,
CCC(=O)NC(=S)Nc1cccc(C(C)=O)c1,19.7,"3.66 µM [rising, single point]","23.1 µM [rising, single point]"
O=C(c1ccc(Cl)c(S(=O)(=O)N2CCCCCC2)c1)N1CCN(CCO)CC1,-44.1,"3.66 µM [falling, full curve]","29.1 µM [falling, single point]"
CCCCCCCSc1nnc(N)s1,2.26,,"0.291 µM [falling, full curve, poor fit]"

Compound,cell number change [%],AC50 [1],AC50 [2]
CCOc1ccc(CC(C(=O)NN)C(=O)NN)cc1CN(C)C,,,"6.51 µM [falling, single point]"
COc1ccc(CNC(=O)[C@H](CCSC)NC(=O)N2CCn3c2nc2ccccc23)cc1,20.2,,"13 µM [rising, partial curve, poor fit]"
COc1cc(CN(C)CCc2ccccc2)ccc1OCc1ccccc1,-19,"0.731 µM [rising, single point]","29.1 µM [falling, partial curve, poor fit]"
O=c1ccc(/C=C/c2ccccc2)nn1Cc1ccccc1,-33.9,"25.9 µM [falling, single point]","29.1 µM [falling, single point]"
O=C(Nc1ccnn1C1CCN(Cc2cccnc2)CC1)c1ccccc1Cl,18.2,"0.058 µM [rising, full curve]",
COc1ccccc1OCC(=O)Nc1ccc(S(=O)(=O)N2CCCC2)cc1,14.5,,
Cc1cc(NC(=O)C(C)SCC(=O)Nc2ccccc2OC(F)F)no1 (stereo not given),-14.9,,
O=C1C(=O)N(Cc2cccnc2)C(c2cccc(Br)c2)/C1=C(/O)c1ccc2c(c1)OCO2 (stereo not given),2.31,,"29.1 µM [rising, single point]"
Cc1cc(C)c2sc(N(CCCN(C)C)C(=O)c3ccc(S(=O)(=O)N(C)Cc4ccccc4)cc3)nc2c1,-84.8,"18.4 µM [falling, partial curve]",
O=C(NCc1cccnc1)C1CCN(S(=O)(=O)c2cccs2)CC1,18.6,,"3.26 µM [rising, partial curve]"
O/C(=C\Sc1nnc(Cc2ccccc2)o1)c1ccc(Br)cc1,4.05,,
CCOC(=O)c1cc(-c2ccccc2)sc1NC(=O)COC(=O)c1ccc(Cl)c(S(N)(=O)=O)c1,-64.6,"18.4 µM [falling, single point]",
CCOc1nc(-c2ccccc2O)nc2ccccc12,119,"1.3 µM [rising, full curve]","0.92 µM [rising, full curve]"
COC(=O)Cc1ccc(NC(=O)C(c2ccccc2)c2ccccc2)cc1,12.9,,"10.3 µM [rising, partial curve, poor fit]"
CCOCCCNC(=O)C(NC(=O)Cc1cccs1)c1ccc(C)cc1 (stereo not given),,"0.651 µM [falling, single point]","0.651 µM [falling, single point]"
CC1(c2ccccc2)NC(=O)N(Cc2ccc([N+](=O)[O-])cc2)C1=O (stereo not given),15.9,,"1.64 µM [rising, full curve, poor fit]"
Cc1cnc(NC(=O)Cc2ccc(C)c(C)c2)s1,-23.7,"0.0731 µM [falling, full curve, poor fit]","5.62 µM [rising, single point]"
CCCOc1ccc(C(=O)NCCCn2ccnc2)cc1,9.76,,
Cc1cc(C)c2nc(NNC(=O)c3ccc(S(=O)(=O)N4CC(C)CC(C)C4)cc3)sc2c1 (stereo not given),-12.8,,"20.6 µM [falling, single point]"

# Three compounds already listed, arranged by heavy-atom count, low to high:
Compound,cell number change [%],AC50 [1],AC50 [2]
CCC(=O)NC(=S)Nc1cccc(C(C)=O)c1,19.7,"3.66 µM [rising, single point]","23.1 µM [rising, single point]"
CC1(NC(=O)Cn2cc(C(F)(F)F)ccc2=O)CCS(=O)(=O)C1 (stereo not given),13,,"6.51 µM [falling, single point]"
CC1(c2ccccc2)NC(=O)N(Cc2ccc([N+](=O)[O-])cc2)C1=O (stereo not given),15.9,,"1.64 µM [rising, full curve, poor fit]"
